Laboratory results: article PMC4432227
These are yes or no findings as the source states them, for the method shown. For some assays here: Binding seen in cells or lysates may run through a third protein. Some entries that bind do so weakly or less than the wild type. Sequences can lack the tags named with a protein.

Sequences of proteins named here, by UniProt entry; tags and fusion partners are left off. A change or cut given only in a name is not applied to a line headed by its entry.
UniProt Q9NVJ2: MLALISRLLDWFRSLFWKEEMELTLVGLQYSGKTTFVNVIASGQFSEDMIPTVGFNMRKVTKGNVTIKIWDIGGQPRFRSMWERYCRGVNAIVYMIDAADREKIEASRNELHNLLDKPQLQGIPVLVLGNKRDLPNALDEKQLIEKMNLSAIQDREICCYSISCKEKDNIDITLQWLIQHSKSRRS

What was measured:
[1] = molecular target: T1, SKIP (yeast two-hybrid fusion) (UniProt Q8IWE5); assay: two-hybrid; S. cerevisiae AH109 co-transformants (pGBKT7 and pGADT7), grown at 30°C, replated on non-selection (+HIS) and selection (−HIS) plates
T1 sequence: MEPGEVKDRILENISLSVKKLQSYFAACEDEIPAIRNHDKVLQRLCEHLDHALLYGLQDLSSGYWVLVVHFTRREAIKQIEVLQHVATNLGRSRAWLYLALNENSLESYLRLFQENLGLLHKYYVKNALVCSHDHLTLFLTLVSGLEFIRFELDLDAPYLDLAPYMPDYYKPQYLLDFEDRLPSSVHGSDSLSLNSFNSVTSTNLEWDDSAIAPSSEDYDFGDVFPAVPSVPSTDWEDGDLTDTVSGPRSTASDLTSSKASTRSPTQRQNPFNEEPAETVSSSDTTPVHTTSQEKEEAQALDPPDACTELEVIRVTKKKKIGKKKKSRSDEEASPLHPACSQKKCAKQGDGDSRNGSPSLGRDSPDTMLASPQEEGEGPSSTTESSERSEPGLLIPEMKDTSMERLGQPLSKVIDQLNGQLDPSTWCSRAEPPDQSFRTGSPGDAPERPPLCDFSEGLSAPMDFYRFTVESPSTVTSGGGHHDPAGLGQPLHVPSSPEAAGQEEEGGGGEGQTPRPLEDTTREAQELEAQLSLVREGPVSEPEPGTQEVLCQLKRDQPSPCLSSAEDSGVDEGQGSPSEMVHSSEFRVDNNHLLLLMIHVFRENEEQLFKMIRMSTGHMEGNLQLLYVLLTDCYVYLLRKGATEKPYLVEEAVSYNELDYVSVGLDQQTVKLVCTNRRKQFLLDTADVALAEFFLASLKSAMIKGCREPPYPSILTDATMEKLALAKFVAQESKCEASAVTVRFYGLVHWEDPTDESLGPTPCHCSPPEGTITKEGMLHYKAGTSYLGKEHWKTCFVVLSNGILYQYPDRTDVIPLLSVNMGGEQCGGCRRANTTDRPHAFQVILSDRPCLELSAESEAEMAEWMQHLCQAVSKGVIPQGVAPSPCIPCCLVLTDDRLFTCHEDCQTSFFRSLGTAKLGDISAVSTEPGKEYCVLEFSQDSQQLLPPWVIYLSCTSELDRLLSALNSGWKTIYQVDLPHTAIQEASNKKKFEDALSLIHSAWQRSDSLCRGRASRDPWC

[2] = molecular target: Arl8b (yeast two-hybrid fusion, Arl8b-pGBKT7) (UniProt Q9NVJ2); assay: as above
[3] = molecular target: T2, SKIP-NΔ300 (yeast two-hybrid fusion) (UniProt Q8IWE5); assay: as above
T2 sequence: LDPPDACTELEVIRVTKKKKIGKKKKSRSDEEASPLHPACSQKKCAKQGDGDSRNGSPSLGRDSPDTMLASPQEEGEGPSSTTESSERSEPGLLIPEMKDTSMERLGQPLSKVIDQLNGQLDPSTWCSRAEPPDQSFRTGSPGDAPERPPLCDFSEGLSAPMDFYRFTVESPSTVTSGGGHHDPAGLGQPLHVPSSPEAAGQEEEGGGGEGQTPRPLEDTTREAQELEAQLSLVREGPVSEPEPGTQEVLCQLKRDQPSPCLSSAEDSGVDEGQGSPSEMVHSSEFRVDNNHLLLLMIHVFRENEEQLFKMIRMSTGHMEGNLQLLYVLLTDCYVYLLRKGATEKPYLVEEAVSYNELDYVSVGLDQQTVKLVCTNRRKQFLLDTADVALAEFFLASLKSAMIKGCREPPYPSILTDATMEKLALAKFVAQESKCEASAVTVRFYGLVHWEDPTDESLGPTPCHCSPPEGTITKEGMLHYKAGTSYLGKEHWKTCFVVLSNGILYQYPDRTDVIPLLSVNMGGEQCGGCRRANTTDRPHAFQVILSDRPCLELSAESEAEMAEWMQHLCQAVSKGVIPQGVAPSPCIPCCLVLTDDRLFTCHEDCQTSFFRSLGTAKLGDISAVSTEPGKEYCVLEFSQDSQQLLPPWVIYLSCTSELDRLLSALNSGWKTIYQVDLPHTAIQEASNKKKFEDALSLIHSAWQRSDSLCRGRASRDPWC

Flag–SKIP wild-type = molecular target: T3, Flag–SKIP wild-type (UniProt Q8IWE5); assay: co-IP; lysates of co-transfected HEK293T cells immunoprecipitated with anti-Flag antibodies, immunoblotted with HA, anti-Vps11 and anti-Vps33a antibodies
T3 sequence: T1 sequence

Flag–SKIP NΔ300 = molecular target: T4, Flag–SKIP NΔ300 (UniProt Q8IWE5); assay: as above
T4 sequence: T2 sequence

GST–Arl8b-T34N = GST–Arl8b-T34N (UniProt Q9NVJ2); assay: pull-down; GST proteins on glutathione-conjugated beads incubated with transfected HeLa cell lysates; immunoblot; only the target purified
GST–Arl8b = GST–Arl8b (UniProt Q9NVJ2); assay: as above
[4] = molecular target: Arl8b-T34N with C-terminal HA epitope (UniProt Q9NVJ2); assay: co-IP; transfected HEK293T cell lysates (20 mM Tris-HCl pH 7.4, 150 mM NaCl, 0.5% NP-40, 1 mM sodium orthovanadate), immunoprecipitated with anti-HA
[5] = molecular target: Arl8b with C-terminal HA epitope, wild type (UniProt Q9NVJ2); assay: as above
[6] = molecular target: Arl8b-Q75L with C-terminal HA epitope (UniProt Q9NVJ2); assay: as above
GST–Rab7, P51149 = assay: pull-down; GST proteins on glutathione-conjugated beads incubated with transfected HeLa cell lysates; immunoblot; only the target purified; settings: remark: other sources report otherwise

B1: hVps39 (yeast two-hybrid fusion) (protein, UniProt Q96JC1 1-886)
chain: MHDAFEPVPILEKLPLQIDCLAAWEEWLLVGTKQGHLLLYRIRKDVVPADVASPESGSCNRFEVTLEKSNKNFSKKIQQIHVVSQFKILVSLLENNIYVHDLLTFQQITTVSKAKGASLFTCDLQHTETGEEVLRMCVAVKKKLQLYFWKDREFHELQGDFSVPDVPKSMAWCENSICVGFKRDYYLIRVDGKGSIKELFPTGKQLEPLVAPLADGKVAVGQDDLTVVLNEEGICTQKCALNWTDIPVAMEHQPPYIIAVLPRYVEIRTFEPRLLVQSIELQRPRFITSGGSNIIYVASNHFVWRLIPVPMATQIQQLLQDKQFELALQLAEMKDDSDSEKQQQIHHIKNLYAFNLFCQKRFDESMQVFAKLGTDPTHVMGLYPDLLPTDYRKQLQYPNPLPVLSGAELEKAHLALIDYLTQKRSQLVKKLNDSDHQSSTSPLMEGTPTIKSKKKLLQIIDTTLLKCYLHTNVALVAPLLRLENNHCHIEESEHVLKKAHKYSELIILYEKKGLHEKALQVLVDQSKKANSPLKGHERTVQYLQHLGTENLHLIFSYSVWVLRDFPEDGLKIFTEDLPEVESLPRDRVLGFLIENFKGLAIPYLEHIIHVWEETGSRFHNCLIQLYCEKVQGLMKEYLLSFPAGKTPVPAGEEEGELGEYRQKLLMFLEISSYYDPGRLICDFPFDGLLEERALLLGRMGKHEQALFIYVHILKDTRMAEEYCHKHYDRNKDGNKDVYLSLLRMYLSPPSIHCLGPIKLELLEPKANLQAALQVLELHHSKLDTTKALNLLPANTQINDIRIFLEKVLEENAQKKRFNQVLKNLLHAEFLRVQEERILHQQVKCIITEEKVCMVCKKKIGNSAFARYPNGVVVHYFCSKEVNPADT
[1]
  binding: binds
[2]
  binding: no binding
[3]
  binding: binds

B2: HA–Vps39 (HEK293T) (protein, UniProt Q96JC1 1-886)
chain: B1 chain
Flag–SKIP wild-type
  binding: binds
Flag–SKIP NΔ300
  binding: binds

B3: HA–hVps41 (HeLa) (protein, UniProt P49754 1-854)
chain: MAEAEEQETGSLEESTDESEEEESEEEPKLKYERLSNGVTEILQKDAASCMTVHDKFLALGTHYGKVYLLDVQGNITQKFDVSPVKINQISLDESGEHMGVCSEDGKVQVFGLYSGEEFHETFDCPIKIIAVHPHFVRSSCKQFVTGGKKLLLFERSWMNRWKSAVLHEGEGNIRSVKWRGHLIAWANNMGVKIFDIISKQRITNVPRDDISLRPDMYPCSLCWKDNVTLIIGWGTSVKVCSVKERHASEMRDLPSRYVEIVSQFETEFYISGLAPLCDQLVVLSYVKEISEKTEREYCARPRLDIIQPLSETCEEISSDALTVRGFQENECRDYHLEYSEGESLFYIVSPRDVVVAKERDQDDHIDWLLEKKKYEEALMAAEISQKNIKRHKILDIGLAYINHLVERGDYDIAARKCQKILGKNAALWEYEVYKFKEIGQLKAISPYLPRGDPVLKPLIYEMILHEFLESDYEGFATLIREWPGDLYNNSVIVQAVRDHLKKDSQNKTLLKTLAELYTYDKNYGNALEIYLTLRHKDVFQLIHKHNLFSSIKDKIVLLMDFDSEKAVDMLLDNEDKISIKKVVEELEDRPELQHVYLHKLFKRDHHKGQRYHEKQISLYAEYDRPNLLPFLRDSTHCPLEKALEICQQRNFVEETVYLLSRMGNSRSALKMIMEELHDVDKAIEFAKEQDDGELWEDLILYSIDKPPFITGLLNNIGTHVDPILLIHRIKEGMEIPNLRDSLVKILQDYNLQILLREGCKKILVADSLSLLKKMHRTQMKGVLVDEENICESCLSPILPSDAAKPFSVVVFHCRHMFHKECLPMPSMNSAAQFCNICSAKNRGPGSAILEMKK
GST–Arl8b-T34N
  binding: no binding
GST–Arl8b
  binding: binds

B4: Myc–hVps41 (protein, UniProt P49754 1-854)
chain: B3 chain
[4]
  binding: no binding
[5]
  binding: binds
[6]
  binding: binds

B5: HA–hVps41 (HeLa), P49754 1-854 (protein)
chain: B3 chain
GST–Rab7, P51149
  binding: no binding
